Source: publication PMC11212232
These are yes or no findings as the source states them, for the method shown. Binding seen in cells or lysates may run through a third protein. Some entries that bind do so weakly or less than the wild type.

The chains behind the UniProt entries cited, without tags or fusion partners.
UniProt Q9NYB9: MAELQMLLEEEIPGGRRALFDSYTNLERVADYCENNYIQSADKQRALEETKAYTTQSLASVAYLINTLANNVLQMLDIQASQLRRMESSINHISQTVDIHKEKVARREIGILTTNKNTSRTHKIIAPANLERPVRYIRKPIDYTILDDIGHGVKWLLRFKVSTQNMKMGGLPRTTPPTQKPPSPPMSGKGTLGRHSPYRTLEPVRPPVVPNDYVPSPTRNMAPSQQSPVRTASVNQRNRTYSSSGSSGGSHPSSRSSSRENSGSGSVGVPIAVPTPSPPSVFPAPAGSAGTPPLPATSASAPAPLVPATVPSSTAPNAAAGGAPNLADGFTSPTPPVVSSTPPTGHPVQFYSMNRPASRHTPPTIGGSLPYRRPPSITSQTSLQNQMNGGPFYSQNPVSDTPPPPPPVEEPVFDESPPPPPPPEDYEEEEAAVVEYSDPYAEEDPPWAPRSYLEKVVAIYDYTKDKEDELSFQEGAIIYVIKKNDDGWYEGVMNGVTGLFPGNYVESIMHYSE

Target: ABI2, natural (endogenous) form in HEK293T cells (human (endogenous in HEK293T)) (UniProt Q9NYB9)
Experiment: co-IP; natural (endogenous) ABI2 and CBLC in HEK293T lysate; antibody overnight at 4 C, protein A/G magnetic beads 4 h at 4 C, western blotting

B1: CBLC E3 ligase, natural (endogenous) form in HEK293T cells (enzyme, UniProt Q9ULV8 1-474)
chain: MALAVAPWGRQWEEARALGRAVRMLQRLEEQCVDPRLSVSPPSLRDLLPRTAQLLREVAHSRRAAGGGGPGGPGGSGDFLLIYLANLEAKSRQVAALLPPRGRRSANDELFRAGSRLRRQLAKLAIIFSHMHAELHALFPGGKYCGHMYQLTKAPAHTFWRESCGARCVLPWAEFESLLGTCHPVEPGCTALALRTTIDLTCSGHVSIFEFDVFTRLFQPWPTLLKNWQLLAVNHPGYMAFLTYDEVQERLQACRDKPGSYIFRPSCTRLGQWAIGYVSSDGSILQTIPANKPLSQVLLEGQKDGFYLYPDGKTHNPDLTELGQAEPQQRIHVSEEQLQLYWAMDSTFELCKICAESNKDVKIEPCGHLLCSCCLAAWQHSDSQTCPFCRCEIKGWEAVSIYQFHGQATAEDSGNSSDQEGRELELGQVPLSAPPLPPRPDLPPRKPRNAQPKVRLLKGNSPPAALGPQDPAPA
- binding: binds
